Data: US20100015654A1 (INSTITUT DE RECHERCHES CLINIQUES DE MONTREAL I R C M, published 2010)
Results are given in words; binding and its absence hold for the method and conditions named. In cells and extracts the contact can be indirect. Some results given as binding are weak or reduced against the parent protein; the word gives no strength.

Key:
[1] = target: T1, mouse 2B4 (CD244), endogenous in IL-2-activated mouse NK cells (mouse) (UniProt Q07763); assay: co-immunoprecipitation from mouse NK cells
T1 sequence (constitutively tyrosine phosphorylated in mouse NK cells (sites not stated), looked up): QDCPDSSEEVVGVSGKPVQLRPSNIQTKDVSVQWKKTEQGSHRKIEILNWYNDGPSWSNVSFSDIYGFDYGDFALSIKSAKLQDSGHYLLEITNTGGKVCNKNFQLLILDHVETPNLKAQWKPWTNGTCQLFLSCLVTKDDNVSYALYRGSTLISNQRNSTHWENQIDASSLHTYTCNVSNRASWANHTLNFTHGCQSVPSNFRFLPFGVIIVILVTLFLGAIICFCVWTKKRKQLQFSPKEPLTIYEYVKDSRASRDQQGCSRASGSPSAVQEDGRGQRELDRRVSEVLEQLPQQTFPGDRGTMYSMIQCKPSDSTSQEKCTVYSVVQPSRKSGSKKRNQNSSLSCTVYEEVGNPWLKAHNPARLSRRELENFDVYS

[2] = target: T1, mouse 2B4 (CD244), endogenous in IL-2-activated mouse NK cells (mouse); assay: co-immunoprecipitation from IL-2-activated mouse NK cells, anti-2B4 immunoblot
[3] = target: T1, mouse 2B4 (CD244), endogenous in IL-2-activated mouse NK cells (mouse); assay: co-immunoprecipitation from IL-2-activated mouse NK cells, anti-2B4 immunoblot (FIG. 5)

binding [1]: binds
binding [2]: binds
binding [3]: binds
B1: mouse SAP (other, UniProt O88890 1-126, looked up)
chain: MDAVTVYHGKISRETGEKLLLATGLDGSYLLRDSESVPGVYCLCVLYQGYIYTYRVSQTETGSWSAETAPGVHKRFFRKVKNLISAFQKPDQGIVTPLQYPVEKSSGRGPQAPTGRRDSDICLNAP
notes: Intracellular adaptor made of an SH2 domain and a short tail
